PubChem BioAssay AID1224830, NIAID – 2016

- Test: 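Regulators of TLR4 signalling towards TNF-alpha in macrophage-like cells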 (primary screen)
- Cell system: human THP-1 monocytic leukaemia cells, TNF dual-luciferase reporter clone, PMA-differentiated to macrophage-like cells
- Reagent: siRNA pool against human genes, 50 nM
- Duration: LPS for 4 h, given about 3 days after siRNA transfection
- Conditions: bacterial LPS (TLR4 ligand), 10 ng/ml
- Measurement: 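Ratio of firefly to renilla light, scaled to the plate median and expressed as a robust z-score per replicate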
- Scale: TNF reporter robust z-score: higher = stronger TNF reporter response to LPS
- Rule for the call: 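Each well counts as active if its z-score is over 2.8 or under -1.5; controls are left without a call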
In all, the deposit lists about 18,000 reagents; shown is a part drawn at random. Over the whole deposit, about 2,900 (16%) are marked active. 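Calls are made per well; low scores hint the gene aids the LPS response, high scores that it dampens it.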 Repeated entries: four replicate wells of each siRNA pool. Reagent sequences are not shown.

gene symbol	TNF reporter robust z-score	outcome
BTG1 (BTG anti-proliferation factor 1)	0.98	inactive
BTG1 (BTG anti-proliferation factor 1)	4.14	active
BTG1 (BTG anti-proliferation factor 1)	3.12	active
BTG1 (BTG anti-proliferation factor 1)	3.93	active
DAPP1 (dual adaptor of phosphotyrosine and 3-phosphoinositides 1)	-0.44	inactive
DAPP1 (dual adaptor of phosphotyrosine and 3-phosphoinositides 1)	0.38	inactive
DAPP1 (dual adaptor of phosphotyrosine and 3-phosphoinositides 1)	0.55	inactive
DAPP1 (dual adaptor of phosphotyrosine and 3-phosphoinositides 1)	-0.34	inactive
ITLN1 (intelectin 1)	-1	inactive
ITLN1 (intelectin 1)	-0.68	inactive
ITLN1 (intelectin 1)	-1.29	inactive
ITLN1 (intelectin 1)	1	inactive
OR4N2 (olfactory receptor family 4 subfamily N member 2)	-0.7	inactive
OR4N2 (olfactory receptor family 4 subfamily N member 2)	0.16	inactive
OR4N2 (olfactory receptor family 4 subfamily N member 2)	-0.15	inactive
OR4N2 (olfactory receptor family 4 subfamily N member 2)	0.38	inactive
OR2A25 (olfactory receptor family 2 subfamily A member 25)	-0.86	inactive
OR2A25 (olfactory receptor family 2 subfamily A member 25)	-1.11	inactive
OR2A25 (olfactory receptor family 2 subfamily A member 25)	-0.27	inactive
OR2A25 (olfactory receptor family 2 subfamily A member 25)	-0.25	inactive
MLANA (melan-A)	-0.68	inactive
MLANA (melan-A)	-0.11	inactive
MLANA (melan-A)	-0.23	inactive
MLANA (melan-A)	-0.05	inactive
PARG (poly(ADP-ribose) glycohydrolase)	-0.2	inactive
PARG (poly(ADP-ribose) glycohydrolase)	-0.28	inactive
PARG (poly(ADP-ribose) glycohydrolase)	-1.07	inactive
PARG (poly(ADP-ribose) glycohydrolase)	1.18	inactive
IL33R (interleukin 33 receptor)	-0.28	inactive
IL33R (interleukin 33 receptor)	0.94	inactive
IL33R (interleukin 33 receptor)	-0.51	inactive
IL33R (interleukin 33 receptor)	0.83	inactive
KARS1 (lysyl-tRNA synthetase 1)	-0.79	inactive
KARS1 (lysyl-tRNA synthetase 1)	-0.78	inactive
KARS1 (lysyl-tRNA synthetase 1)	-0.85	inactive
KARS1 (lysyl-tRNA synthetase 1)	-0.6	inactive
BPIFB3 (BPI fold containing family B member 3)	-1.05	inactive
BPIFB3 (BPI fold containing family B member 3)	-0.83	inactive
BPIFB3 (BPI fold containing family B member 3)	-0.93	inactive
BPIFB3 (BPI fold containing family B member 3)	-0.77	inactive
ZFAT (zinc finger and AT-hook domain containing)	0.55	inactive
ZFAT (zinc finger and AT-hook domain containing)	-0.73	inactive
ZFAT (zinc finger and AT-hook domain containing)	-0.76	inactive
ZFAT (zinc finger and AT-hook domain containing)	-0.07	inactive
ACTN1 (actinin alpha 1)	-0.43	inactive
ACTN1 (actinin alpha 1)	0.01	inactive
ACTN1 (actinin alpha 1)	-0.46	inactive
ACTN1 (actinin alpha 1)	0.04	inactive
ISCA1P1 (iron-sulfur cluster assembly 1 pseudogene 1)	-0.73	inactive
ISCA1P1 (iron-sulfur cluster assembly 1 pseudogene 1)	-0.24	inactive
ISCA1P1 (iron-sulfur cluster assembly 1 pseudogene 1)	-0.48	inactive
ISCA1P1 (iron-sulfur cluster assembly 1 pseudogene 1)	-0.21	inactive
SOFU1 (sperm-oocyte fusion factor 1)	-1.11	inactive
SOFU1 (sperm-oocyte fusion factor 1)	-1.03	inactive
SOFU1 (sperm-oocyte fusion factor 1)	-1.55	active
SOFU1 (sperm-oocyte fusion factor 1)	-0.99	inactive

Part of the list above in another layout:
ZFAT (zinc finger and AT-hook domain containing) — TNF reporter robust z-score: -0.07; outcome: inactive
ACTN1 (actinin alpha 1) — TNF reporter robust z-score: -0.43; outcome: inactive
ACTN1 (actinin alpha 1) — TNF reporter robust z-score: 0.01; outcome: inactive
ACTN1 (actinin alpha 1) — TNF reporter robust z-score: -0.46; outcome: inactive
ACTN1 (actinin alpha 1) — TNF reporter robust z-score: 0.04; outcome: inactive
ISCA1P1 (iron-sulfur cluster assembly 1 pseudogene 1) — TNF reporter robust z-score: -0.73; outcome: inactive
ISCA1P1 (iron-sulfur cluster assembly 1 pseudogene 1) — TNF reporter robust z-score: -0.24; outcome: inactive
ISCA1P1 (iron-sulfur cluster assembly 1 pseudogene 1) — TNF reporter robust z-score: -0.48; outcome: inactive
ISCA1P1 (iron-sulfur cluster assembly 1 pseudogene 1) — TNF reporter robust z-score: -0.21; outcome: inactive
SOFU1 (sperm-oocyte fusion factor 1) — TNF reporter robust z-score: -1.11; outcome: inactive
SOFU1 (sperm-oocyte fusion factor 1) — TNF reporter robust z-score: -1.03; outcome: inactive
SOFU1 (sperm-oocyte fusion factor 1) — TNF reporter robust z-score: -1.55; outcome: active
SOFU1 (sperm-oocyte fusion factor 1) — TNF reporter robust z-score: -0.99; outcome: inactive

The listing continues:
gene symbol	TNF reporter robust z-score	outcome
SELE (selectin E)	0.16	inactive
SELE (selectin E)	-0.07	inactive
SELE (selectin E)	0.68	inactive
SELE (selectin E)	-0.27	inactive
ZBTB7B (zinc finger and BTB domain containing 7B)	-0.02	inactive
ZBTB7B (zinc finger and BTB domain containing 7B)	-0.07	inactive
ZBTB7B (zinc finger and BTB domain containing 7B)	0.86	inactive
ZBTB7B (zinc finger and BTB domain containing 7B)	0.59	inactive
AMN1 (antagonist of mitotic exit network 1 homolog)	-0.94	inactive
AMN1 (antagonist of mitotic exit network 1 homolog)	-0.13	inactive
AMN1 (antagonist of mitotic exit network 1 homolog)	0.97	inactive
AMN1 (antagonist of mitotic exit network 1 homolog)	-0.19	inactive
CYP2J2 (cytochrome P450 family 2 subfamily J member 2)	-0.46	inactive
CYP2J2 (cytochrome P450 family 2 subfamily J member 2)	-0.08	inactive
CYP2J2 (cytochrome P450 family 2 subfamily J member 2)	-0.24	inactive
CYP2J2 (cytochrome P450 family 2 subfamily J member 2)	0.75	inactive
KIF5B (kinesin family member 5B)	0.4	inactive
KIF5B (kinesin family member 5B)	1.14	inactive
KIF5B (kinesin family member 5B)	0.56	inactive
KIF5B (kinesin family member 5B)	1.51	inactive
PPP1R3D (protein phosphatase 1 regulatory subunit 3D)	-0.31	inactive
PPP1R3D (protein phosphatase 1 regulatory subunit 3D)	-0.36	inactive
PPP1R3D (protein phosphatase 1 regulatory subunit 3D)	-0.54	inactive
PPP1R3D (protein phosphatase 1 regulatory subunit 3D)	-0.89	inactive
GRAP (GRB2 related adaptor protein)	4.25	active
GRAP (GRB2 related adaptor protein)	-0.32	inactive
GRAP (GRB2 related adaptor protein)	0.32	inactive
GRAP (GRB2 related adaptor protein)	0.98	inactive
MXRA5 (matrix remodeling associated 5)	-0.12	inactive
MXRA5 (matrix remodeling associated 5)	-0.29	inactive
MXRA5 (matrix remodeling associated 5)	0.38	inactive
MXRA5 (matrix remodeling associated 5)	0.75	inactive
MTMR3 (myotubularin related protein 3)	1.25	inactive
MTMR3 (myotubularin related protein 3)	4.2	active
MTMR3 (myotubularin related protein 3)	0.98	inactive
MTMR3 (myotubularin related protein 3)	1	inactive
ACADVL (acyl-CoA dehydrogenase very long chain)	0.16	inactive
ACADVL (acyl-CoA dehydrogenase very long chain)	0.3	inactive
ACADVL (acyl-CoA dehydrogenase very long chain)	0.11	inactive
ACADVL (acyl-CoA dehydrogenase very long chain)	0.64	inactive
DMBT1 (deleted in malignant brain tumors 1)	0.11	inactive
DMBT1 (deleted in malignant brain tumors 1)	0.49	inactive
DMBT1 (deleted in malignant brain tumors 1)	-1.09	inactive
DMBT1 (deleted in malignant brain tumors 1)	-0.66	inactive
KCNB1 (potassium voltage-gated channel subfamily B member 1)	-1.32	inactive
KCNB1 (potassium voltage-gated channel subfamily B member 1)	-0.44	inactive
KCNB1 (potassium voltage-gated channel subfamily B member 1)	-0.79	inactive
KCNB1 (potassium voltage-gated channel subfamily B member 1)	-0.53	inactive
FAM133B (family with sequence similarity 133 member B)	0.3	inactive
FAM133B (family with sequence similarity 133 member B)	1.74	inactive
FAM133B (family with sequence similarity 133 member B)	1.22	inactive
FAM133B (family with sequence similarity 133 member B)	-0.38	inactive
SPEG (striated muscle enriched protein kinase)	-0.17	inactive
SPEG (striated muscle enriched protein kinase)	0.11	inactive
SPEG (striated muscle enriched protein kinase)	-0.29	inactive
SPEG (striated muscle enriched protein kinase)	-1.41	inactive
ZBTB32 (zinc finger and BTB domain containing 32)	0.88	inactive
ZBTB32 (zinc finger and BTB domain containing 32)	0.48	inactive
ZBTB32 (zinc finger and BTB domain containing 32)	1.07	inactive
ZBTB32 (zinc finger and BTB domain containing 32)	0.56	inactive
TMEM132D (transmembrane protein 132D)	0.54	inactive
TMEM132D (transmembrane protein 132D)	0.95	inactive
TMEM132D (transmembrane protein 132D)	0.35	inactive
TMEM132D (transmembrane protein 132D)	1.64	inactive
VGLL4 (vestigial like family member 4)	-0.15	inactive
VGLL4 (vestigial like family member 4)	-0.21	inactive
VGLL4 (vestigial like family member 4)	0.01	inactive
VGLL4 (vestigial like family member 4)	0.34	inactive
PNPLA2 (patatin like domain 2, triacylglycerol lipase)	0.43	inactive
PNPLA2 (patatin like domain 2, triacylglycerol lipase)	0.62	inactive
PNPLA2 (patatin like domain 2, triacylglycerol lipase)	0.3	inactive
PNPLA2 (patatin like domain 2, triacylglycerol lipase)	-1.14	inactive
CCL16 (C-C motif chemokine ligand 16)	0.34	inactive
CCL16 (C-C motif chemokine ligand 16)	0.05	inactive
CCL16 (C-C motif chemokine ligand 16)	1.54	inactive
CCL16 (C-C motif chemokine ligand 16)	1.28	inactive
TMEM107 (transmembrane protein 107)	-1.17	inactive
TMEM107 (transmembrane protein 107)	-0.79	inactive
TMEM107 (transmembrane protein 107)	-0.7	inactive
TMEM107 (transmembrane protein 107)	-1.1	inactive
RXRG (retinoid X receptor gamma)	-0.19	inactive
RXRG (retinoid X receptor gamma)	-0.46	inactive
RXRG (retinoid X receptor gamma)	-0.09	inactive
RXRG (retinoid X receptor gamma)	-0.79	inactive
